Data on one molecule can be found in US10100001B2, “Adenylyl cyclase inhibitors for neuropathic and inflammatory pain” (Purdue Research Foundation, priority 2015, dated 2018).

Chains of the proteins cited; added tags and fusions are not shown. Lines headed by an entry give the natural chain unless they say otherwise; changes in a name come on top.
UniProt Q08828: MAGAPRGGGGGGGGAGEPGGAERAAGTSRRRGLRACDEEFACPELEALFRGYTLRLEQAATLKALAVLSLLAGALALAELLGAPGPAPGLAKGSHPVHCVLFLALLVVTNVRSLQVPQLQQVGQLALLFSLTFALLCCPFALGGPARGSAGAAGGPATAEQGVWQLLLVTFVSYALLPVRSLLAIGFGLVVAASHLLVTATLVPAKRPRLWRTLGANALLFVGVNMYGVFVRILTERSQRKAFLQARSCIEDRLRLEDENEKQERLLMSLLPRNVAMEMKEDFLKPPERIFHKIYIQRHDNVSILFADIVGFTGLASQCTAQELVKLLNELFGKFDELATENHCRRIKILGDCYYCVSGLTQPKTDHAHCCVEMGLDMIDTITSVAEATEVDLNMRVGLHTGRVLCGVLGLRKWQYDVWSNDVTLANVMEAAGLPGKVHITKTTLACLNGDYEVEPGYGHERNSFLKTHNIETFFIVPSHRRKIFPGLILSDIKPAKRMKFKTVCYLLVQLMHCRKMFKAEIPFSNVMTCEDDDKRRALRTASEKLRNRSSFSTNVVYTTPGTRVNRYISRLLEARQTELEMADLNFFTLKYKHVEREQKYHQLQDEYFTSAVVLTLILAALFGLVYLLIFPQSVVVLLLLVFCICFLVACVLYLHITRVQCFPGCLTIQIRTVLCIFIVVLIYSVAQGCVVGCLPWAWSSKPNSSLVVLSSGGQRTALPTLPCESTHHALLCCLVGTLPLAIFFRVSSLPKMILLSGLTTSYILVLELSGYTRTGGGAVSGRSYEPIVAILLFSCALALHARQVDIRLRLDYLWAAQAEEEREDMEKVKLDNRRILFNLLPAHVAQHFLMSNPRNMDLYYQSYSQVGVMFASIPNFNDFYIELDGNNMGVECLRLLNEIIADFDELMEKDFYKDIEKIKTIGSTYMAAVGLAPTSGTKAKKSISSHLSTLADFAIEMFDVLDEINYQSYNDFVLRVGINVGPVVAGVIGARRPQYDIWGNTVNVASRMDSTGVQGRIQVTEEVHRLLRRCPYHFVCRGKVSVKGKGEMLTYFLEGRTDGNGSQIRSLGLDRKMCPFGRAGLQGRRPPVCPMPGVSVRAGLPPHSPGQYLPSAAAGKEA

In general, inhibition refers to the change of the read-out against control, counted positive when it falls.

The target in this experiment is T1, AC1 (Homo sapiens, UniProt Q08828).
T1 construct: expressed in transfected cells
Kind of experiment: Inhibition of A23187-mediated (Ca2+-stimulated) cAMP accumulation in HEK cells stably expressing AC1. Type of experiment: cell-based. The note with it: HEK293, read-out: AC1 Inhibition Percentage. The method, then: In certain aspects, the invention provides a method of treating neuropathic or inflammatory pain. Steps of the method include providing compounds of the invention as an adenylyl cyclase inhibitor. Compounds of the invention may be AC1 inhibitors. The compounds may have an IC50 in the μM range and more preferably in the nM or pM range. […] HEK cells stably expressing AC1 were treated with inhibitors for 30 min, and subsequently incubated with 3 μM A23187 in the presence of 2 mM IBMX. Data represent the average and S.E.M. of at least three independent experiments.
To determine whether compounds of the invention have an inhibitory effect on AC1 activity, HEK (human embryonic kidney) cells stably expressing AC1 (HEK-AC1) were employed and inhibition of Ca2+-stimulated cAMP accumulation was determined. A23187 is a Ca2+ ionophore, which promotes Ca2+ binding to calmodulin in the cells and, subsequent stimulation of AC1. […]
Cryopreserved HEK-AC1 cells were thawed in a 37° C. water-bath, resuspended in 10 ml optiMEM (Life Technologies, Grand Island, N.Y.) and centrifuged at 500×g for 5 min. […] Cells were then resuspended in 1 ml optiMEM and counted using a Countess automated cell counter (Life Technologies, Grand Island, N.Y.). […] Cyclic AMP accumulation was measured using Cisbio's dynamic 2 kit (Cisbio Bioassays, Bedford, Mass.) according to the manufacturer's instructions. […]

As for `C(=C\c1ccccc1)/CN1CCN(C(c2ccccc2)c2ccccc2)CC1` [Compound 2, 1-benzhydryl-4-cinnamylpiperazine, reference compound], the inhibition at 4 µM (4 μM compound) came to 22%. Moreover, the inhibition at 40 µM (40 μM compound) stood at 89%.
